Assay results: publication PMC7366740
These are yes or no findings as the source states them, for the method shown. Binding seen in cells or lysates may run through a third protein. Some entries that bind do so weakly or less than the wild type.

The chains behind the UniProt entries cited, without tags or fusion partners. Residues count along the entry.
UniProt Q99KH8: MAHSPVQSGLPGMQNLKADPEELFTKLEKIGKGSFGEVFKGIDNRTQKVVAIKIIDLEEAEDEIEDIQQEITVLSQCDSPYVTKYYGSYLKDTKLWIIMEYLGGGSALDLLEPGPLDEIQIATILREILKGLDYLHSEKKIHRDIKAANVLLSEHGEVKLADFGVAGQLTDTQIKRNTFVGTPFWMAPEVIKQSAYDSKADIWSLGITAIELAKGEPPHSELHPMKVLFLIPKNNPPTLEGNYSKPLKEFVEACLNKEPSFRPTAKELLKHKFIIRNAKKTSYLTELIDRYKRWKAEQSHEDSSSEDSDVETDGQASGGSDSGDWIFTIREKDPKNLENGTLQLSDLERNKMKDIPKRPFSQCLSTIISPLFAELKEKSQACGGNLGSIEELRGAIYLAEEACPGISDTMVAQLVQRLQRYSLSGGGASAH
UniProt P62812, residues 28-455: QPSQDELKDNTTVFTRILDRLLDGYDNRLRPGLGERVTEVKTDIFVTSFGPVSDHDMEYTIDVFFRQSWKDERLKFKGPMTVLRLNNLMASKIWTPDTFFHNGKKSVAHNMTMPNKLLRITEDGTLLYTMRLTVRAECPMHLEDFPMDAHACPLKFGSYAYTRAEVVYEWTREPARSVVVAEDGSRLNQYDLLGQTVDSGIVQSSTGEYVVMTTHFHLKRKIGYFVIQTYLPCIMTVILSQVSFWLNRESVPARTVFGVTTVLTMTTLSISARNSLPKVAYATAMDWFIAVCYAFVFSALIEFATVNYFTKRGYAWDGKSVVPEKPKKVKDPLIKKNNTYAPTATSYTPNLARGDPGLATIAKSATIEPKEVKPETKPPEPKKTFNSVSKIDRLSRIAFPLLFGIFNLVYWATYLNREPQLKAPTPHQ
UniProt Q01097, residues 27-1482: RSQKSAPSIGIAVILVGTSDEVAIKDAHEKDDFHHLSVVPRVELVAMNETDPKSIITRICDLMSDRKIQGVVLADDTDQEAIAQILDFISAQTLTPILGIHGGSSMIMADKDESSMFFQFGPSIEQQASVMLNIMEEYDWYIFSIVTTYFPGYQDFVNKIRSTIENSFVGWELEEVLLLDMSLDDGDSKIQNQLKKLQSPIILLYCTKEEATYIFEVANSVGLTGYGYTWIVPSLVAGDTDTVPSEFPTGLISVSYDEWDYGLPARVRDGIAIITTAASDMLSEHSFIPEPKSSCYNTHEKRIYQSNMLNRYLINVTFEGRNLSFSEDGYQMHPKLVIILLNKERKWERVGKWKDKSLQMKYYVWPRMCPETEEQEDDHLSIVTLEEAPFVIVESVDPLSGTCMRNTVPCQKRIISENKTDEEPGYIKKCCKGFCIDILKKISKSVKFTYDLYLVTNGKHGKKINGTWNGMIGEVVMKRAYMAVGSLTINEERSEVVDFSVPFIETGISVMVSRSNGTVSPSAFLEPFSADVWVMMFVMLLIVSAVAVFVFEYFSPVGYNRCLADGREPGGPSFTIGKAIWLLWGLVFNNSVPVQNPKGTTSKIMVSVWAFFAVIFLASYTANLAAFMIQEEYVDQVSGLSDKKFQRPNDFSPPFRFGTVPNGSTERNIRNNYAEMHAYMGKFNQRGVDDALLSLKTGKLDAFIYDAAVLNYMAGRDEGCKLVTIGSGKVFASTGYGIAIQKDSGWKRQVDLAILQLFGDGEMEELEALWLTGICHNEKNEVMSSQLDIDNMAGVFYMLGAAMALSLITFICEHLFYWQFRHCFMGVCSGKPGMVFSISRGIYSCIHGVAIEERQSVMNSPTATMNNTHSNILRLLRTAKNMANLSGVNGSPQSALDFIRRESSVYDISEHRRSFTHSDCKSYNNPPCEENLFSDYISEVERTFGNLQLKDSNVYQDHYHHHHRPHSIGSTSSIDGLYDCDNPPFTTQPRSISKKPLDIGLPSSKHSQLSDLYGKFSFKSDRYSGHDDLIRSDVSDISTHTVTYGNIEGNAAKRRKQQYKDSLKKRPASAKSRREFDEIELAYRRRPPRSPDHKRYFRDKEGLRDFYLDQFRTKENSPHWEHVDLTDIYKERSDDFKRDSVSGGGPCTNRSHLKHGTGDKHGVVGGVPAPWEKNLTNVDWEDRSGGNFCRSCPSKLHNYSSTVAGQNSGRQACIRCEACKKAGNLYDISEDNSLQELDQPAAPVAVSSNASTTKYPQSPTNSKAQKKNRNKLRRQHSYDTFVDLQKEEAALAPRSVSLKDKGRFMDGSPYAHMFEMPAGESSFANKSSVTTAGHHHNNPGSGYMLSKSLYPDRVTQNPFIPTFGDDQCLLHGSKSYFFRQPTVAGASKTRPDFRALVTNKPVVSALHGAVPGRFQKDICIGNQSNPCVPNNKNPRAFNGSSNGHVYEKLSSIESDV
UniProt P23818, residues 19-907: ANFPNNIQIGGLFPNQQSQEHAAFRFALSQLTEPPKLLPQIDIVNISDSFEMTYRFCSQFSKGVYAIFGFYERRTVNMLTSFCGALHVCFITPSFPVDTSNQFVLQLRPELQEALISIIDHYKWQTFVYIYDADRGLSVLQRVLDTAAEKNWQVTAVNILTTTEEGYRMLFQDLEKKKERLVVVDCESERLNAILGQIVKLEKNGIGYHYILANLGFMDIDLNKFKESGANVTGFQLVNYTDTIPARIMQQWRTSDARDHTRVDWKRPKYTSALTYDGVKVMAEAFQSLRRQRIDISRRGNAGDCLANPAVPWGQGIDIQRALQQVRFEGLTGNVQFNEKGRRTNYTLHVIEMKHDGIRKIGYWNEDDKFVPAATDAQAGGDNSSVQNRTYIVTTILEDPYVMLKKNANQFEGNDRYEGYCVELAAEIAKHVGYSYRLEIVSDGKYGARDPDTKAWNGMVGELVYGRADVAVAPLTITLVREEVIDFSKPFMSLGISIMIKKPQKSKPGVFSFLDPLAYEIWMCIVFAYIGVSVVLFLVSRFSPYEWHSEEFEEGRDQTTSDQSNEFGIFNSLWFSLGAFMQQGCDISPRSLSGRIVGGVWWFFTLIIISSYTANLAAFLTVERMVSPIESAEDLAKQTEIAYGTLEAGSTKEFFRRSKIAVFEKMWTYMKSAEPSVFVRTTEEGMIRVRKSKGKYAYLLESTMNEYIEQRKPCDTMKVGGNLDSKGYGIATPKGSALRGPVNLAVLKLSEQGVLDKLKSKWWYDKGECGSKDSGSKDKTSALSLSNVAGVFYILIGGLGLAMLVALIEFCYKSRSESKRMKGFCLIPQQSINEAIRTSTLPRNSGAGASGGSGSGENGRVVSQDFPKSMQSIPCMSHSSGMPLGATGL
UniProt P23819, residues 25-883: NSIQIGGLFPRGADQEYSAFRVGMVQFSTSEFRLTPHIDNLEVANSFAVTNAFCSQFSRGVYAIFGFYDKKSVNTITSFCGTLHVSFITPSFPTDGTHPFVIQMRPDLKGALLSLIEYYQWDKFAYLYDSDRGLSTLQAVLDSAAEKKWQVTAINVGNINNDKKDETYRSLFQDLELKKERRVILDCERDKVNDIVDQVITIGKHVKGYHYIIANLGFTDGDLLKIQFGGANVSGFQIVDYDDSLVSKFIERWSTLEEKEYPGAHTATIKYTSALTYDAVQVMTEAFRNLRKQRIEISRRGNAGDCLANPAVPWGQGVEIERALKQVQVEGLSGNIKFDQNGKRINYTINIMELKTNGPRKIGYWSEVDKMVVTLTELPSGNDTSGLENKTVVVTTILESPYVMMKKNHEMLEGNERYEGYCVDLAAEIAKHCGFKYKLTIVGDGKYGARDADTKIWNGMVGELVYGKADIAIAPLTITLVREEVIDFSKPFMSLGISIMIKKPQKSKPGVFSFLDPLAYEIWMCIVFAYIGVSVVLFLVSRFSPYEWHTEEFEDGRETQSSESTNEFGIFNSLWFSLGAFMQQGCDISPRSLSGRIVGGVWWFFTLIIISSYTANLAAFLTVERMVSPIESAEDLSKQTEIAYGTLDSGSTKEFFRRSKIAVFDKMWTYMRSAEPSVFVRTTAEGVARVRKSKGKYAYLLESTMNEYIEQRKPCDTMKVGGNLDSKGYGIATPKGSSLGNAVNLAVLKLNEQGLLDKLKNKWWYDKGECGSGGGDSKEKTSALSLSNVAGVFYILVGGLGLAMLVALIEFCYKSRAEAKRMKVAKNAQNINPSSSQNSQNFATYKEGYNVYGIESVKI

Legend:
[1] = biological target: Serine/threonine kinase 24 (STK24) (mouse (endogenous in hippocampus of PTZ-kindled C57BL/6 mice)) (UniProt Q99KH8); test: co-IP; hippocampal lysates of PTZ-kindled mice; STK24 antibody on protein A/G magnetic beads; precipitate blotted for receptor subunits; rabbit IgG as negative control
[2] = biological target: GABAAR α1 (mouse (endogenous in hippocampus of PTZ-kindled C57BL/6 mice)) (UniProt P62812); test: co-IP; hippocampal lysates of PTZ-kindled mice; antibody against the receptor subunit on protein A/G magnetic beads; precipitate blotted with corresponding antibodies (STK24); rabbit IgG as negative control
[3] = biological target: NMDA receptor subunit NR2B (mouse (endogenous in hippocampus of PTZ-kindled C57BL/6 mice)) (UniProt Q01097); test: as above
[4] = biological target: AMPA receptor subunit GluR1 (mouse (endogenous in hippocampus of PTZ-kindled C57BL/6 mice)) (UniProt P23818); test: as above
[5] = biological target: NMDA receptor subunit NR1 (mouse (endogenous in hippocampus of PTZ-kindled C57BL/6 mice)) (UniProt P35438); test: as above
[6] = biological target: NMDA receptor subunit NR2A (mouse (endogenous in hippocampus of PTZ-kindled C57BL/6 mice)) (UniProt P35436); test: as above
[7] = biological target: AMPA receptor subunit GluR2 (mouse (endogenous in hippocampus of PTZ-kindled C57BL/6 mice)) (UniProt P23819); test: as above
[8] = biological target: T1, GABAAR γ2 (mouse (endogenous in hippocampus of PTZ-kindled C57BL/6 mice)) (UniProt P22723); test: as above
T1 sequence: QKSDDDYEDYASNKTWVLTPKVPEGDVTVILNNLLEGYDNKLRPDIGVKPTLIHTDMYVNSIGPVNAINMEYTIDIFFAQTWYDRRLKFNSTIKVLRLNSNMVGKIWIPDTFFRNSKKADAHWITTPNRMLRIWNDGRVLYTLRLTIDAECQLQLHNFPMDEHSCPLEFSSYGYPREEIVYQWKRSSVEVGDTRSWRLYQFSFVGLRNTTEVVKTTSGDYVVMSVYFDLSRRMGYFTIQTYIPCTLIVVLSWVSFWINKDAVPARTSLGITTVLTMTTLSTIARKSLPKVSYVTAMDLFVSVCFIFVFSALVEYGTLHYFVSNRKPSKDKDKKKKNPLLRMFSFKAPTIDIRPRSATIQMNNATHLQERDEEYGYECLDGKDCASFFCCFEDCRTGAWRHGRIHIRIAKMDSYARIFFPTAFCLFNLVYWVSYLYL

Substance	binding [1]	binding [2]	binding [3]	binding [4]	binding [5]	binding [6]	binding [7]	binding [8]
NMDA receptor subunit NR2A (from UniProt P35436 23-1464)	binds							
NMDA receptor subunit NR2B (from UniProt Q01097 27-1482)	binds							
Serine/threonine kinase 24 (STK24) (from UniProt Q99KH8 1-431)		no binding	binds	no binding	binds	binds	no binding	no binding
